Assay results from the supplement of paper PMC10849652.
Some of the results follow.

Protein sequences, listed by entry. Tags and fused reporters are not part of them. Lines headed by an entry give the natural chain unless they say otherwise; changes in a name come on top.
UniProt Q96PM5: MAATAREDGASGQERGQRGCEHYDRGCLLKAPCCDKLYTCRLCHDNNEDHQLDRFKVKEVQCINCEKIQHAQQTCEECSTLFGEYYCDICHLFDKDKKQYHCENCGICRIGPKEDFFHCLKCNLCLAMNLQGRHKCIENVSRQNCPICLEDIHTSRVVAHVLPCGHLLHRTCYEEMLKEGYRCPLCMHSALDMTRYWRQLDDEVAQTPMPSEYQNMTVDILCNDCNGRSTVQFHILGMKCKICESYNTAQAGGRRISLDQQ
UniProt O14593: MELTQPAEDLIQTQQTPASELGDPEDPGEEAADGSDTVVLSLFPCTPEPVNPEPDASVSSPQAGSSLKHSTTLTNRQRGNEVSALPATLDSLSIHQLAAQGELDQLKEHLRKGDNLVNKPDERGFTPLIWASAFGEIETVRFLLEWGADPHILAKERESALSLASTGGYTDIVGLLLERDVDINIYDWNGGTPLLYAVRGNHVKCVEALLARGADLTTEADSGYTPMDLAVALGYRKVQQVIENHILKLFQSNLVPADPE
UniProt Q9HCM1: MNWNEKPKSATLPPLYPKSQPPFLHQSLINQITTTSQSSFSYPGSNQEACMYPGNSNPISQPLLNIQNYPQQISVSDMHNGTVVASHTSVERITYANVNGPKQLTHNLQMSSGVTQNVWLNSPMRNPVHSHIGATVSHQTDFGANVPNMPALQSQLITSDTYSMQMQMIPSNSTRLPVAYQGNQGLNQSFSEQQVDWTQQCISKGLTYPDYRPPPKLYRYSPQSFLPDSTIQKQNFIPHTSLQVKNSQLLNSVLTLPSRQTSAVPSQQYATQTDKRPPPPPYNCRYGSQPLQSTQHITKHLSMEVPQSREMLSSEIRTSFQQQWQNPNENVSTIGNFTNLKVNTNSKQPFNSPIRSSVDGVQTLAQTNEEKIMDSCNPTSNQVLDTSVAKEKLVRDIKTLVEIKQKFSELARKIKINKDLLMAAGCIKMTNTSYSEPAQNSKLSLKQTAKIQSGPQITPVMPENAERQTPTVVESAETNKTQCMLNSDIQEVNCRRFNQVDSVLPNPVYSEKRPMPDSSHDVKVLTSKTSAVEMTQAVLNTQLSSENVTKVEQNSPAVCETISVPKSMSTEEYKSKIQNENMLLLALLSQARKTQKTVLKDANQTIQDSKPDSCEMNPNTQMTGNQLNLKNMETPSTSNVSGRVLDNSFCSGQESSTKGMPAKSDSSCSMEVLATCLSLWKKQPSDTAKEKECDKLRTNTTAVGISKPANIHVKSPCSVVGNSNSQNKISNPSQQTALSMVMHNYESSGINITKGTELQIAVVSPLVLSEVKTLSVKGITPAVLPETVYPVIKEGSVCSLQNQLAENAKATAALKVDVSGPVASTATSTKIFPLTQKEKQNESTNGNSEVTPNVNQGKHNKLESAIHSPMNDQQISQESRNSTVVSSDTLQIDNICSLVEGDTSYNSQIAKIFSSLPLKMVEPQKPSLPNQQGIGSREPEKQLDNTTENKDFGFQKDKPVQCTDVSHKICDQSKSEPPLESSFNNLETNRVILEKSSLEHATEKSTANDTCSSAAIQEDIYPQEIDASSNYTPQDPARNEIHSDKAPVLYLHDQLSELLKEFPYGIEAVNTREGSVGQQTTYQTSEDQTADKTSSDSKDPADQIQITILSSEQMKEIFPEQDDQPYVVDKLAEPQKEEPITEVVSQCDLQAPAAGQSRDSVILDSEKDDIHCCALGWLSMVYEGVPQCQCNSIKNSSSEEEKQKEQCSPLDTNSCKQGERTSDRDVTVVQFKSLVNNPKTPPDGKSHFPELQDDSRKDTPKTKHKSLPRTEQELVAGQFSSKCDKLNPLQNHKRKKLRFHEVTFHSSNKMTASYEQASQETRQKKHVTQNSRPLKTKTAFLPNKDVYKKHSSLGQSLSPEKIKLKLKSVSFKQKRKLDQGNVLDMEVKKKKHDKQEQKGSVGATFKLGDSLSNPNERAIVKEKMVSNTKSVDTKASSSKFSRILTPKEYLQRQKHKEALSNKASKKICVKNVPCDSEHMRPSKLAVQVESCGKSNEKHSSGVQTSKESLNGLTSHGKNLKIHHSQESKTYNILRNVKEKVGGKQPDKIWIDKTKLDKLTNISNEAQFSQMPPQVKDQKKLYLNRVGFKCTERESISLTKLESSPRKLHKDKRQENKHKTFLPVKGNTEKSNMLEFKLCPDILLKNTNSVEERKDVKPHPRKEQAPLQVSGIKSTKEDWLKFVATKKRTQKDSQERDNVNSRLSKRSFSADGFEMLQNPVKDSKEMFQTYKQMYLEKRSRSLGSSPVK
UniProt Q96EN9: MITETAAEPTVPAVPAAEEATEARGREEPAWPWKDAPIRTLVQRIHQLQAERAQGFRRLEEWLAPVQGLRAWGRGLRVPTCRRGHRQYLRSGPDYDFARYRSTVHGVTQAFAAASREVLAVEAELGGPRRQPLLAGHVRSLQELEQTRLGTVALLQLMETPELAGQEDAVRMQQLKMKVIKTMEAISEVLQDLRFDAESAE
UniProt Q9Y388: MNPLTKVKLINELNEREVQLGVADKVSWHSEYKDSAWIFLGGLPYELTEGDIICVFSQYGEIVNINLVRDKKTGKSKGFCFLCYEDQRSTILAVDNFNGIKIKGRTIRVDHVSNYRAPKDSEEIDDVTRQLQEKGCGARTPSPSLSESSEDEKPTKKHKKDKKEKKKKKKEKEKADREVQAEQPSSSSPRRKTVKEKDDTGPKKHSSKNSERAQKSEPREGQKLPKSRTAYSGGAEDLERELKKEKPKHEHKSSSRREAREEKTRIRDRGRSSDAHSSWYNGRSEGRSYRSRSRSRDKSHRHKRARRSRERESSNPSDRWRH
UniProt Q8TC12: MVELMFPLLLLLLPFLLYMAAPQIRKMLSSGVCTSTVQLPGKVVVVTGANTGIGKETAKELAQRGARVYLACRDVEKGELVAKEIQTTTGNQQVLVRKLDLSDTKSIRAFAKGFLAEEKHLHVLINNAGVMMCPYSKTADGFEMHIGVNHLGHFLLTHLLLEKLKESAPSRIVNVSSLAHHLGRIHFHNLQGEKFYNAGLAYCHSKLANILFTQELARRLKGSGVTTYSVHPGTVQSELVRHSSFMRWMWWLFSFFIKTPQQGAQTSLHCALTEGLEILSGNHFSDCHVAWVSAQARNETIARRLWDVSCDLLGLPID
UniProt Q9Y3P4: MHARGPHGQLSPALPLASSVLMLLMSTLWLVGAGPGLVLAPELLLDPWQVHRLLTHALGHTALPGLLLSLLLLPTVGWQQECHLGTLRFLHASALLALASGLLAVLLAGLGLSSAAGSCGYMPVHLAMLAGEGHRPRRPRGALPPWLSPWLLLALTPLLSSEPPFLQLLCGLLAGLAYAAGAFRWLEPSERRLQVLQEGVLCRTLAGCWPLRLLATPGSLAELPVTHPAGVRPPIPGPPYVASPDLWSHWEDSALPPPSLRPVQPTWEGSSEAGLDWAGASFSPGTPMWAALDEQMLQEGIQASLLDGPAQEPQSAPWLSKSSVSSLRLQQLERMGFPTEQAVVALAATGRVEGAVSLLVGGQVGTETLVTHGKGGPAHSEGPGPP
UniProt Q9Y644: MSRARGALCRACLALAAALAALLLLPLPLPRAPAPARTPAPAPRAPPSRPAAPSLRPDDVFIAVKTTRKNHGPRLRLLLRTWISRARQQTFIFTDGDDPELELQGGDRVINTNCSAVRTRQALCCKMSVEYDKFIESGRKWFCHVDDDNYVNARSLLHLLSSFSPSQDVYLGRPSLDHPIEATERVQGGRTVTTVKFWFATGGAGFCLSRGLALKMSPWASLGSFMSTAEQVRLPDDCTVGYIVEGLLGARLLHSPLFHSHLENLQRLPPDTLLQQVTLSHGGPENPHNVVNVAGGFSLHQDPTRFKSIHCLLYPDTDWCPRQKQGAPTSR
UniProt Q9H0Z9: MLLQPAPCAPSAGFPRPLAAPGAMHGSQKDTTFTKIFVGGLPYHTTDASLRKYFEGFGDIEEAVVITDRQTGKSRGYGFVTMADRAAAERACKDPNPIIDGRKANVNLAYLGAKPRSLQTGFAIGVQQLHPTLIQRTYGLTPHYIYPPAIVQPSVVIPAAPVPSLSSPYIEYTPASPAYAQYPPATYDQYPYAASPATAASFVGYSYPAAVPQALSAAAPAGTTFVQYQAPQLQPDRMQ
UniProt Q8N0V3: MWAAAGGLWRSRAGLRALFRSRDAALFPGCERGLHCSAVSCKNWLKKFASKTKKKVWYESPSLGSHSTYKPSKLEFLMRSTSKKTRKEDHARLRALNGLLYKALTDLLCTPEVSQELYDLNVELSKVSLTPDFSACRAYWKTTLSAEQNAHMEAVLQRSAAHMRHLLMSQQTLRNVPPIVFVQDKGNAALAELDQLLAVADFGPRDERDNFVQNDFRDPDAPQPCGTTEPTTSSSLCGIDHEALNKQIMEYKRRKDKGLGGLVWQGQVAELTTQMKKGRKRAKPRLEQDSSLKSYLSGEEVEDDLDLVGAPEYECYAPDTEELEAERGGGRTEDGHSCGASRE
UniProt Q6NTF9: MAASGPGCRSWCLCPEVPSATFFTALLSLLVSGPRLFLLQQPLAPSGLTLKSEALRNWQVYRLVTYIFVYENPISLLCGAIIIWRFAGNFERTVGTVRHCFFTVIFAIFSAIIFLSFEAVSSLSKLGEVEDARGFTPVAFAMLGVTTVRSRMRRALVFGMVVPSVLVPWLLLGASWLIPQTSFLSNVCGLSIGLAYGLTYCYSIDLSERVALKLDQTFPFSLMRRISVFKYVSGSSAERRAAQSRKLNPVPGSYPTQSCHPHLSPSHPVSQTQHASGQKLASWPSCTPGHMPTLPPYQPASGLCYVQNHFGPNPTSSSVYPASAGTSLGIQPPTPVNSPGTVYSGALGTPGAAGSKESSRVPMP
UniProt Q7LDG7: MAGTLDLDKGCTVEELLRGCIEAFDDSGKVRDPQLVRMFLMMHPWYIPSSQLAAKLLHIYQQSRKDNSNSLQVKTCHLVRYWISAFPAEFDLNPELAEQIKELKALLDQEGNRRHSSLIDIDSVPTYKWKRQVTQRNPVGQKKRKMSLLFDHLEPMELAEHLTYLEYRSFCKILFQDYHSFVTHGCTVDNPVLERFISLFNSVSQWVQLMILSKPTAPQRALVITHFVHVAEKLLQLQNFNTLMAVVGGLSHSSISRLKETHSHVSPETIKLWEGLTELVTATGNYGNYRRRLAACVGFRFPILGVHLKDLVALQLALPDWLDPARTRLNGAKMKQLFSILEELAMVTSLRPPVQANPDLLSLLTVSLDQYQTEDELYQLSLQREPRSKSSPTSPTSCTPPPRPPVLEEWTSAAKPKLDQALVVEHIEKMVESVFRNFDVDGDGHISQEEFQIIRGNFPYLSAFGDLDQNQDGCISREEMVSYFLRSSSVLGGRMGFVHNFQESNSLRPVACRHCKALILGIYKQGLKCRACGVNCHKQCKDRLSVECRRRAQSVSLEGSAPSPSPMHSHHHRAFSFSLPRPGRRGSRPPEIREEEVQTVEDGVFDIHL
UniProt Q9HCJ3: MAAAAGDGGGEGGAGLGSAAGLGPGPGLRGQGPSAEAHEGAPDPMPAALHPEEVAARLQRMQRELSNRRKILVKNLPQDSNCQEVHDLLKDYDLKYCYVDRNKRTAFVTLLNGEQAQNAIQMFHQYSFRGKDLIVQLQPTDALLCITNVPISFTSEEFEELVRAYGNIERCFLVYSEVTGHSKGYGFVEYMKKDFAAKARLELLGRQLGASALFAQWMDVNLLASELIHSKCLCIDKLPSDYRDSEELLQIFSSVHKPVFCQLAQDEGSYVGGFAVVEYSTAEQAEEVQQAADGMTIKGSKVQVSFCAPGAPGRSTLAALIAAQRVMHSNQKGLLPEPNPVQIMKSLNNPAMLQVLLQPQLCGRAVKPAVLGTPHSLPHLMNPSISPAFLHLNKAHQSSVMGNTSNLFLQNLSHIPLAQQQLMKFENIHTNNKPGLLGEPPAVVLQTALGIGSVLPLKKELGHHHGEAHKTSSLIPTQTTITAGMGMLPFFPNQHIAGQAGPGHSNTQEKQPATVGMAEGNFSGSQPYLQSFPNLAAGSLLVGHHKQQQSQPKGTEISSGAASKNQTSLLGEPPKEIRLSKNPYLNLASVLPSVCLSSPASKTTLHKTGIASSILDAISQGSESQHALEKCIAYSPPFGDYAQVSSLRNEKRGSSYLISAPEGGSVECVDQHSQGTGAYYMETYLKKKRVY
UniProt Q5RL73: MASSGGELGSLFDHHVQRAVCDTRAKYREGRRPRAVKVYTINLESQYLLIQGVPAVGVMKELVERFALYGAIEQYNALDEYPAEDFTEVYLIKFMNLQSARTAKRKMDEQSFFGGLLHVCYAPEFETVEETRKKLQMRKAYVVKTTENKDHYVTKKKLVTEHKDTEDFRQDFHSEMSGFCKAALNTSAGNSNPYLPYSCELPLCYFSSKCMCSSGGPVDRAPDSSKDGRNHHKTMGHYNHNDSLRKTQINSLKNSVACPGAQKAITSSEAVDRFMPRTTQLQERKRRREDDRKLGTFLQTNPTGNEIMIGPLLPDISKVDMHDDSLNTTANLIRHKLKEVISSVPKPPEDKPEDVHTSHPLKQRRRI
UniProt P82980: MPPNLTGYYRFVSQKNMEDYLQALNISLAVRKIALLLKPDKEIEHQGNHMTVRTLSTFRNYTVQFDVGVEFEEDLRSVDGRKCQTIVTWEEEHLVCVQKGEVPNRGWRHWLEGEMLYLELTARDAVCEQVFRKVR

How the values were obtained:
Assay in all cases: log2 fold change, soluble protein after heating vs DMSO (PISA); higher = thermal stabilisation; K562 lysate, 10 uM; active = over 0.2 and 3.5 SD of the protein, either way, in both replicates (recomputed)
[1] = compound: CC(=O)c1cnc2ccc(-c3cc(Cl)c(O)c(Cl)c3)nc2c1N[C@H]1CC[C@H](CN(C)C)CC1
How it was run: (§1)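 To prepare the extract, K562 pellets were dounce-homogenised in PBS pH 7.4 with 1 mM MgCl2, giving crude material at 1 mg/mL protein. This was treated with 10 μM compound for 30 min, then heated in aliquots for 3 min over 48°C-58°C before pooling and addition of NP-40 to 0.5% at 4°C. Centrifugation at 21,000xg for 90 min left soluble protein in the supernatant, which TMTpro 16plex LC-MS/MS quantified with equalised channel sums. Results are log-two fold changes in thermal stability compared with solvent controls, from duplicates.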

ralimetinib = compound: CC(C)(C)Cn1c(N)nc2ccc(-c3[nH]c(C(C)(C)C)nc3-c3ccc(F)cc3)nc21 [ralimetinib]
How it was run: as §1

[2] = compound: CC(C)(O)CC(=O)NCCn1ccc2ncnc(Nc3ccc(Oc4cccc(C(F)(F)F)c4)c(Cl)c3)c21
How it was run: as §1

[3] = compound: CC(C)C1=C2N=C(C=C(N2N=C1)NCC3=CC=CC=C3)NCCCCCCN
How it was run: as §1

[4] = compound: CC1=C(C(CC(=O)N1)C2=CC=C(C=C2)C(F)(F)F)C(=O)NC3=C(C=C4C(=C3)C=NN4)F
How it was run: as §1

[5] = compound: CC1=C(C2=C(C=C1)C(=O)C3=CC=CC=C3N2CCCN)C
How it was run: as §1

[6] = compound: CC1=C(C=C(C=C1)NC(=O)C2=CC(=CC=C2)C(C)(C)C#N)NC3=CC4=C(C=C3)N=CN(C4=O)C
How it was run: as §1

[7] = compound: CC1=C(C=C(C=C1)NC(=O)C2=CC(=CC=C2)N(C)C)NC(=O)C3=CC=C(C=C3)O
How it was run: as §1

[8] = compound: CC1=CC=C(C=C1)SC2=C3C=C(SC3=CN=C2)C(=O)N
How it was run: as §1

ibrutinib = compound: C=CC(=O)N1CCC[C@@H](n2nc(-c3ccc(Oc4ccccc4)cc3)c3c(N)ncnc32)C1 [ibrutinib]
How it was run: as §1

Row | Target | log2 fold change [1] | log2 fold change (ralimetinib) | log2 fold change [2] | log2 fold change [3] | log2 fold change [4] | log2 fold change [5] | log2 fold change [6] | log2 fold change [7] | log2 fold change [8] | log2 fold change (ibrutinib)
1 | RGL2 (UniProt O15211) | inactive: 0.057 | inactive: -0.143 | inactive: 0.206 | inactive: 0.173 | inactive: -0.172 | inactive: -0.147 | inactive: -0.022 | inactive: -0.038 | inactive: -0.001 | –
2 | RBM15 (UniProt Q96T37) | inactive: 0.01 | inactive: -0.067 | inactive: 0.064 | inactive: 0.007 | – | inactive: 0.017 | inactive: -0.036 | inactive: 0.036 | inactive: 0.045 | inactive: -0.113
3 | RCHY1 (UniProt Q96PM5) | inactive: -0.013 | inactive: 0.002 | inactive: 0.019 | inactive: 0.009 | inactive: -0.055 | inactive: 0.022 | inactive: 0.212 | inactive: -0.012 | inactive: -0.011 | inactive: 0.027
4 | RBBP9 (UniProt O75884) | – | inactive: -0.059 | inactive: -0.017 | inactive: -0.005 | – | – | inactive: 0.086 | inactive: 0.086 | – | inactive: -0.008
5 | RECQL4 (UniProt O94761) | – | inactive: -0.034 | inactive: -0.06 | inactive: 0.039 | inactive: -0.017 | inactive: 0.076 | inactive: 0 | inactive: 0.044 | – | inactive: 0.016
6 | RBM20 (UniProt Q5T481) | – | inactive: 0.113 | inactive: -0.351 | inactive: 0.024 | inactive: -0.017 | inactive: -0.022 | – | inactive: -0.41 | – | inactive: -0.051
7 | RGS10 (UniProt O43665) | inactive: 0.01 | inactive: 0.029 | inactive: 0.02 | inactive: -0.02 | inactive: -0.017 | inactive: -0.052 | inactive: -0.008 | inactive: -0.018 | inactive: -0.043 | inactive: 0.03
8 | RFXANK (UniProt O14593) | inactive: -0.068 | inactive: 0.088 | inactive: 0.024 | inactive: 0.085 | – | inactive: -0.012 | inactive: 0.008 | inactive: 0.019 | inactive: 0.058 | inactive: 0.1
9 | RGS3 (UniProt P49796) | inactive: 0.083 | inactive: 0.072 | inactive: 0.048 | inactive: 0.038 | inactive: -0.087 | – | inactive: -0.001 | inactive: -0.024 | inactive: -0.023 | inactive: 0.116
10 | RBM47 | inactive: 0.144 | inactive: 0.021 | inactive: -0.114 | inactive: -0.072 | inactive: -0.069 | inactive: -0.054 | – | inactive: 0.065 | inactive: -0.017 | –
11 | RGS19 (UniProt P49795) | – | – | – | – | inactive: 0.045 | – | inactive: -0.059 | – | – | –
12 | RESF1 (UniProt Q9HCM1) | – | inactive: -0.016 | inactive: 0.044 | – | – | inactive: 0.025 | inactive: 0.144 | inactive: 0.021 | – | –
13 | RBBP4 isoform 4 (UniProt Q09028) | inactive: 0.155 | inactive: 0.145 | inactive: 0.101 | – | inactive: 0.045 | – | – | inactive: -0.026 | inactive: -0.031 | –
14 | RBM45 (UniProt Q8IUH3) | inactive: -0.077 | – | – | – | inactive: -0.127 | – | inactive: 0.038 | – | active: 0.487 | –
15 | REST (UniProt Q13127) | inactive: -0.016 | inactive: -0.064 | inactive: -0.025 | inactive: -0.472 | – | inactive: -0.014 | inactive: 0.143 | inactive: -0.014 | inactive: -0.059 | –
16 | REX1BD (UniProt Q96EN9) | – | inactive: 0.014 | inactive: -0.015 | inactive: 0.007 | inactive: -0.112 | inactive: -0.095 | inactive: -0.04 | inactive: 0.031 | – | –
17 | RBBP7 (UniProt C9J7L0) | – | – | – | – | inactive: -0.187 | – | – | – | – | –
18 | RGPD6 (UniProt H7BZ48) | – | – | – | – | – | – | inactive: 0.011 | – | – | –
19 | RBM4 isoform 3 (UniProt Q9BWF3) | – | – | – | – | – | – | inactive: -0.092 | – | – | –
20 | RBMX2 (UniProt Q9Y388) | inactive: -0.004 | – | – | inactive: 0.122 | – | inactive: -0.034 | – | – | inactive: 0.06 | –
21 | RDH11 (UniProt Q8TC12) | inactive: -0.021 | inactive: 0.005 | inactive: -0.043 | inactive: 0.068 | inactive: -0.013 | inactive: -0.039 | inactive: -0.037 | inactive: -0.039 | inactive: -0.111 | –

Rewritten with tabs: entries from further up
Row	Target	log2 fold change [1]	log2 fold change (ralimetinib)	log2 fold change [2]	log2 fold change [3]	log2 fold change [4]	log2 fold change [5]	log2 fold change [6]	log2 fold change [7]	log2 fold change [8]	log2 fold change (ibrutinib)
10	RBM47	inactive: 0.144	inactive: 0.021	inactive: -0.114	inactive: -0.072	inactive: -0.069	inactive: -0.054	–	inactive: 0.065	inactive: -0.017	–
11	RGS19 (UniProt P49795)	–	–	–	–	inactive: 0.045	–	inactive: -0.059	–	–	–
12	RESF1 (UniProt Q9HCM1)	–	inactive: -0.016	inactive: 0.044	–	–	inactive: 0.025	inactive: 0.144	inactive: 0.021	–	–
13	RBBP4 isoform 4 (UniProt Q09028)	inactive: 0.155	inactive: 0.145	inactive: 0.101	–	inactive: 0.045	–	–	inactive: -0.026	inactive: -0.031	–
14	RBM45 (UniProt Q8IUH3)	inactive: -0.077	–	–	–	inactive: -0.127	–	inactive: 0.038	–	active: 0.487	–
15	REST (UniProt Q13127)	inactive: -0.016	inactive: -0.064	inactive: -0.025	inactive: -0.472	–	inactive: -0.014	inactive: 0.143	inactive: -0.014	inactive: -0.059	–
16	REX1BD (UniProt Q96EN9)	–	inactive: 0.014	inactive: -0.015	inactive: 0.007	inactive: -0.112	inactive: -0.095	inactive: -0.04	inactive: 0.031	–	–
17	RBBP7 (UniProt C9J7L0)	–	–	–	–	inactive: -0.187	–	–	–	–	–
18	RGPD6 (UniProt H7BZ48)	–	–	–	–	–	–	inactive: 0.011	–	–	–
19	RBM4 isoform 3 (UniProt Q9BWF3)	–	–	–	–	–	–	inactive: -0.092	–	–	–
20	RBMX2 (UniProt Q9Y388)	inactive: -0.004	–	–	inactive: 0.122	–	inactive: -0.034	–	–	inactive: 0.06	–

(listing goes on)

Row | Target | log2 fold change [1] | log2 fold change (ralimetinib) | log2 fold change [2] | log2 fold change [3] | log2 fold change [4] | log2 fold change [5] | log2 fold change [6] | log2 fold change [7] | log2 fold change [8] | log2 fold change (ibrutinib)
22 | RBKS (UniProt Q9H477) | – | inactive: 0.027 | inactive: -0.189 | – | – | inactive: -0.146 | – | inactive: 0.404 | – | –
23 | RHBDD3 (UniProt Q9Y3P4) | – | – | – | – | – | – | inactive: -0.077 | – | – | –
24 | RASSF3 (UniProt Q86WH2) | inactive: 0.128 | – | – | – | – | – | inactive: -0.072 | – | inactive: 0.142 | –
25 | RHD (UniProt Q02161) | – | inactive: -0.016 | inactive: -0.141 | – | – | inactive: 0.06 | – | inactive: -0.052 | – | –
26 | RELCH (UniProt Q9P260) | inactive: -0.182 | – | – | – | – | inactive: -0.087 | inactive: -0.088 | – | inactive: -0.17 | –
27 | RCBTB1 (UniProt Q8NDN9) | – | inactive: 0.041 | inactive: -0.239 | inactive: 0.213 | inactive: -0.046 | – | inactive: -0.107 | inactive: 0.045 | – | –
28 | RBM18 (UniProt Q96H35) | – | inactive: 0.036 | inactive: -0.018 | – | inactive: -0.277 | – | – | inactive: 0.035 | – | –
29 | RGCC (UniProt Q9H4X1) | – | inactive: 0.03 | inactive: -0.07 | inactive: -0.119 | – | – | – | inactive: 0.025 | – | –
30 | RFNG (UniProt Q9Y644) | – | – | – | – | inactive: 0.023 | – | – | – | – | –
31 | RBM38 (UniProt Q9H0Z9) | inactive: -0.02 | inactive: -0.055 | inactive: 0.007 | inactive: -0.016 | inactive: -0.017 | inactive: -0.016 | inactive: -0.136 | inactive: -0.068 | inactive: -0.053 | –
32 | RBM4B (UniProt Q9BQ04) | – | – | – | – | – | – | inactive: 0.04 | – | – | –
33 | RBFA (UniProt Q8N0V3) | – | inactive: 0.046 | inactive: 0.037 | inactive: -0.111 | inactive: -0.127 | – | inactive: 0.121 | inactive: -0.041 | – | –
34 | RELL1 (UniProt Q8IUW5) | – | – | – | inactive: 0.073 | – | – | inactive: 0.088 | – | – | –
35 | RBMXL1 (UniProt Q96E39) | – | – | – | – | – | inactive: -0.111 | inactive: -0.054 | – | – | –
36 | RHBDD2 isoform 2 (UniProt Q6NTF9) | – | inactive: 0.012 | inactive: 0.019 | inactive: -0.221 | – | – | – | inactive: 0.05 | – | –
37 | RCOR2 (UniProt Q8IZ40) | – | inactive: -0.021 | inactive: -0.04 | – | – | – | – | inactive: -0.022 | – | –
38 | RASGRP2 isoform 2 (UniProt Q7LDG7) | – | – | – | – | inactive: 0.029 | – | – | – | – | –
39 | RAVER2 (UniProt Q9HCJ3) | – | inactive: -0.056 | inactive: -0.039 | inactive: -0.107 | – | inactive: -0.076 | inactive: 0.066 | inactive: -0.041 | – | –
40 | RBM48 isoform 2 (UniProt Q5RL73) | – | inactive: -0.008 | inactive: -0.05 | inactive: 0.006 | – | inactive: -0.11 | inactive: -0.005 | inactive: 0.013 | – | –
41 | RC3H2 (UniProt Q9HBD1) | inactive: -0.146 | inactive: 0.128 | inactive: -0.051 | – | – | inactive: -0.088 | inactive: -0.015 | inactive: -0.177 | inactive: 0.083 | –
42 | RBP5 (UniProt P82980) | inactive: -0.077 | inactive: 0.015 | inactive: -0.109 | inactive: 0.065 | inactive: 0.138 | inactive: 0.031 | inactive: -0.153 | inactive: 0.072 | inactive: 0.084 | –
